Experimental data as given in article PMC6597717.
No constants are given. Whether binding was seen depends on the method and setting. Binding seen in cells or lysates may run through a third protein. Some binding calls cover weakened binding; strength is not graded here.

By UniProt entry, the sequences of proteins in these tests, tags left out.
UniProt Q8CJG0: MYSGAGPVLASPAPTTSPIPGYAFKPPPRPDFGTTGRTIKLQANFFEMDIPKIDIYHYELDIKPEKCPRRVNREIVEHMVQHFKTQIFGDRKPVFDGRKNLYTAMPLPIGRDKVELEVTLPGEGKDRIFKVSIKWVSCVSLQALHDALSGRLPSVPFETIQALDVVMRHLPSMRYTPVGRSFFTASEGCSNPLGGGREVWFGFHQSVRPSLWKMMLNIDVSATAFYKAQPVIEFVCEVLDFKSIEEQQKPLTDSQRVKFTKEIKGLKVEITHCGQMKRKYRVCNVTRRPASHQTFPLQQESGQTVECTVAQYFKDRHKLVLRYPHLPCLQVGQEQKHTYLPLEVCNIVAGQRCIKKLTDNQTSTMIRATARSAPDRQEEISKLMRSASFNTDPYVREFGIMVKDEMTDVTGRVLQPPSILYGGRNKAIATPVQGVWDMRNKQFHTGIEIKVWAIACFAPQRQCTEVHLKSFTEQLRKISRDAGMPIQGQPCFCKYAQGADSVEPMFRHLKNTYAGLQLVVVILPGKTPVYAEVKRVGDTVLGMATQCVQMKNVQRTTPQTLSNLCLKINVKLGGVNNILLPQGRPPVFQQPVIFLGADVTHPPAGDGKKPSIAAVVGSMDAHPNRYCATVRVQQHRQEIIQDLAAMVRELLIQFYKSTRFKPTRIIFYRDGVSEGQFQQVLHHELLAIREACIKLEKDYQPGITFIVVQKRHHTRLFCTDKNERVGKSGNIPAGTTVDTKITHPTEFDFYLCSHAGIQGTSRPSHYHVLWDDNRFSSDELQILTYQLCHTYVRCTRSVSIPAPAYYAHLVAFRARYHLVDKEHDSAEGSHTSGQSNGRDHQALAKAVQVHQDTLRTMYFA
UniProt Q7TMY7: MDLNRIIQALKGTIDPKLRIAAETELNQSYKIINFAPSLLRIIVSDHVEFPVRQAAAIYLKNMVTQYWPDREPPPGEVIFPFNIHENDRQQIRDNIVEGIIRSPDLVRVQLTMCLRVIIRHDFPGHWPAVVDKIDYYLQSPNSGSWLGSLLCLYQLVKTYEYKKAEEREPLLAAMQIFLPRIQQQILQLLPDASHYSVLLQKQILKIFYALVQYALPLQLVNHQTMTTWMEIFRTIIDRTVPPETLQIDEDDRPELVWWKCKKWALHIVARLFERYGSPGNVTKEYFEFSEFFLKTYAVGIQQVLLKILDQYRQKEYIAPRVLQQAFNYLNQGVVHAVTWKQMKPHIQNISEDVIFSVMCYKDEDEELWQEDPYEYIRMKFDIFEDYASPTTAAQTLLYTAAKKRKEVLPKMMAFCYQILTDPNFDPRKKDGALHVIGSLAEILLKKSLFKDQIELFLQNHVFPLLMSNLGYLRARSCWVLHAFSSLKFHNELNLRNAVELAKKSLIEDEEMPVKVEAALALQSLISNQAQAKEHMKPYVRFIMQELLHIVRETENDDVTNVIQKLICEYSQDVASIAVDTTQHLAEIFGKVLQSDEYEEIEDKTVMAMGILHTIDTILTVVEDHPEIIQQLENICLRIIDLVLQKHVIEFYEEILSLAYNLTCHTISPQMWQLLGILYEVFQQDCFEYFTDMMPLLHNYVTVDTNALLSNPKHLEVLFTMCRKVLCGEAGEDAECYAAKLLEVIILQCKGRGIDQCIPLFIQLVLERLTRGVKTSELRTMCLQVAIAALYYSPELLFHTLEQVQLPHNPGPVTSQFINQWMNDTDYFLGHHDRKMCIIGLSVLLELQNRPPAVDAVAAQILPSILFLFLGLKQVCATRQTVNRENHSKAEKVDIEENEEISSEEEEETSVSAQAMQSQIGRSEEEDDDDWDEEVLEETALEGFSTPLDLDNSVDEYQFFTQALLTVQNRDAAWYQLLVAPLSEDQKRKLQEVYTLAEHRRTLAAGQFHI

Assays:
AGO2 NanoLuc [1] = biological target: AGO2 NanoLuc (UniProt Q8CJG0); test: FRET or BRET; NanoBRET in HL-1 cells transfected with AGO2 NanoLuc and IPO8-Halo, without IWR-1; 100 nM NanoBRET 618 Ligand, signals detected 6 hours after treatment
AGO2 NanoLuc [2] = biological target: AGO2 NanoLuc (UniProt Q8CJG0); test: FRET or BRET; NanoBRET in HL-1 cells transfected with AGO2 NanoLuc and IPO8-Halo, in presence of IWR-1; 100 nM NanoBRET 618 Ligand, signals detected 6 hours after treatment

binding (AGO2 NanoLuc [2]): binds
Substance: IPO8-Halo (from UniProt Q7TMY7 1-1010)
binding (AGO2 NanoLuc [1]): no binding (condition: cells without IWR-1)
